Record: PubChem BioAssay AID504791 (Drosophila RNAi Screening Center, 2011)
Screen: 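Factors in Argonaute-based small RNA production and activity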 (primary screen). Cell system: Drosophila S2-derived reporter cells. Reagents: long dsRNA against Drosophila genes, about 150-250 ng dsRNA per well (siRNA assay); about 80-120 ng (miRNA assay). Timing: about 5 days (siRNA assay); about 4 days (miRNA assay). Conditions: copper sulfate induction of reporters: 25 µM (siRNA assay); 200 mM stated (miRNA assay), 1-2 days before reading. Measurement: 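Dual luciferase assay: Renilla to firefly signal ratio in each well, scaled to the mean ratio of its plate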. Hit rule: 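a well was a first-pass pick when its plate-scaled ratio rose above 1.5 (siRNA assay) or 1.6 (miRNA assay), or dropped below 0.6; a gene counted only if two separate dsRNAs agreed on retest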.
In all, the deposit lists about 23,000 reagents; below is a random part of those with a known target gene and a result. In the full data, 199 (0.86%) were called active. 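Plate-scaled ratios behind the calls are not deposited; printed light signals are raw; many rows marked increased or decreased are still called inactive.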 A number with no mark means an inactive call. Names joined by + are all predicted targets of the reagent. Not given: the direction of the score.

With knock-down of CG10864 [DRSC14273] the results were stable assay Renilla, run 1 (luminescence) = 8223; stable assay firefly, run 1 (luminescence) = 3.14e5. After knock-down of wrd (well-rounded) [DRSC16337] the results were stable assay Renilla, run 1 (luminescence) = 5720; stable assay firefly, run 1 (luminescence) = 2.27e5. With knock-down of wrd (well-rounded) [DRSC16344], the record shows stable assay Renilla, run 1 (luminescence) = 7504; stable assay firefly, run 1 (luminescence) = 4.25e5. For wrd (well-rounded) [DRSC23189], the entry reads stable assay Renilla, run 1 (luminescence) = 2511; stable assay firefly, run 1 (luminescence) = 2.09e5. CG11192 [DRSC06057] showed stable assay Renilla, run 1 (luminescence) = 6870; stable assay firefly, run 1 (luminescence) = 3.99e5. Silencing of dpr9 (defective proboscis extension response 9) [DRSC14534] came out at: stable assay Renilla, run 1 (luminescence) = 9101; stable assay firefly, run 1 (luminescence) = 4.56e5.

Against dpr9 (defective proboscis extension response 9) [DRSC14985] the deposit lists stable assay Renilla, run 1 (luminescence) = 7534; stable assay firefly, run 1 (luminescence) = 3.31e5. After knock-down of dpr9 (defective proboscis extension response 9) [DRSC14986], the record shows stable assay Renilla, run 1 (luminescence) = 7100; stable assay firefly, run 1 (luminescence) = 3.08e5. For CG43163 [DRSC10745], the entry reads stable assay Renilla, run 1 (luminescence) = 6243; stable assay firefly, run 1 (luminescence) = 4.19e5. For CG43163 [DRSC10748] the deposit lists stable assay Renilla, run 1 (luminescence) = 5955; stable assay firefly, run 1 (luminescence) = 3.64e5. UK114 [DRSC01973] showed stable assay Renilla, run 1 (luminescence) = 8243; stable assay firefly, run 1 (luminescence) = 4.35e5. For chic (chickadee) [DRSC03507] the deposit lists stable assay Renilla, run 1 (luminescence) = 7194; stable assay firefly, run 1 (luminescence) = 4.69e5.

Sem1 (Suppressor of exocyst mutations 1) [DRSC02282] scored stable assay Renilla, run 1 (luminescence) = 14675; stable assay firefly, run 1 (luminescence) = 9.73e5. TM4SF (Transmembrane 4 superfamily) [DRSC04661] scored stable assay Renilla, run 1 (luminescence) = 16048; stable assay firefly, run 1 (luminescence) = 1.07e6. mRpL40 (mitochondrial ribosomal protein L40) [DRSC15749] gave stable assay Renilla, run 1 (luminescence) = 5666; stable assay firefly, run 1 (luminescence) = 4.06e5. Silencing of CG11598 [DRSC14331] came out at: stable assay Renilla, run 1 (luminescence) = 6268; stable assay firefly, run 1 (luminescence) = 5.17e5. Nost (Nostrin) [DRSC18037] scored stable assay Renilla, run 1 (luminescence) = 6899; stable assay firefly, run 1 (luminescence) = 4.06e5. Against Nost (Nostrin) [DRSC18338], the entry reads stable assay Renilla, run 1 (luminescence) = 6923; stable assay firefly, run 1 (luminescence) = 3.99e5.

For CNMaR (CNMamide Receptor) [DRSC08992], the values are stable assay Renilla, run 1 (luminescence) = 3691; stable assay firefly, run 1 (luminescence) = 3.37e5. With knock-down of CNMaR (CNMamide Receptor) [DRSC10224], the screen gave stable assay Renilla, run 1 (luminescence) = 5499; stable assay firefly, run 1 (luminescence) = 3.31e5. Silencing of CG18132 [DRSC00518] resulted in: stable assay Renilla, run 1 (luminescence) = 7234; stable assay firefly, run 1 (luminescence) = 4.19e5. For MsrA (Methionine sulfoxide reductase A) [DRSC11159], the values are stable assay Renilla, run 1 (luminescence) = 7070; stable assay firefly, run 1 (luminescence) = 4.92e5. With knock-down of CG1571 [DRSC18068], the screen gave stable assay Renilla, run 1 (luminescence) = 6515; stable assay firefly, run 1 (luminescence) = 4.40e5. CG42663 [DRSC06158] showed stable assay Renilla, run 1 (luminescence) = 6894; stable assay firefly, run 1 (luminescence) = 3.37e5.

CG42663 [DRSC06404] showed stable assay Renilla, run 1 (luminescence) = 4496; stable assay firefly, run 1 (luminescence) = 3.43e5. Arts + Apl [DRSC10349] gave stable assay Renilla, run 1 (luminescence) = 9037; stable assay firefly, run 1 (luminescence) = 5.33e5. EMC1 (ER membrane protein complex subunit 1) [DRSC15455] gave stable assay Renilla, run 1 (luminescence) = 10669; stable assay firefly, run 1 (luminescence) = 6.24e5. Depletion of C1GalTA (Core 1 Galactosyltransferase A) [DRSC03246] gave: stable assay Renilla, run 1 (luminescence) = 6886; stable assay firefly, run 1 (luminescence) = 5.87e5. After knock-down of CG14736 [DRSC14956], the record shows stable assay Renilla, run 1 (luminescence) = 5902; stable assay firefly, run 1 (luminescence) = 3.25e5. With knock-down of pnt (pointed) [DRSC17028], the screen gave stable assay Renilla, run 1 (luminescence) = 4304; stable assay firefly, run 1 (luminescence) = 1.67e5.

For pnt (pointed) [DRSC23204], the entry reads stable assay Renilla, run 1 (luminescence) = 1760; stable assay firefly, run 1 (luminescence) = 1.90e5. Depletion of CG7706 [DRSC16295] gave: stable assay Renilla, run 1 (luminescence) = 10005; stable assay firefly, run 1 (luminescence) = 5.02e5. After knock-down of fry (furry) [DRSC08993], the record shows stable assay Renilla, run 1 (luminescence) = 4027; stable assay firefly, run 1 (luminescence) = 3.38e5. fry (furry) [DRSC10172] showed stable assay Renilla, run 1 (luminescence) = 5740; stable assay firefly, run 1 (luminescence) = 3.69e5. For fry (furry) [DRSC10709], the values are stable assay Renilla, run 1 (luminescence) = 6418; stable assay firefly, run 1 (luminescence) = 4.85e5. Knock-down of fry (furry) [DRSC10712] came out at: stable assay Renilla, run 1 (luminescence) = 7470; stable assay firefly, run 1 (luminescence) = 3.05e5.
